Tested on: P. berghei
Experiment: Standard 4 day Peters assay, P. berghei in mice, drug intraperitoneally
Format: in vivo
Conditions: P. berghei infections in mice, twice a day days 0-3, FIG. 11
Method: (§1) FIG. 11. The effect of the racemic form of propranolol on growth of P. berghei in vivo. In vivo mouse experiments were done with P. berghei using a standard 4 day Peters assay (W. Peters, B. L. Robinson, Ann Trop Med Parasitol 78, 561 (1984)). P. berghei and the racemic form of propranolol were administered intraperitoneally; five mice were used per data point. In IC50 studies, 5 data points were taken. Mice were given 5×10^7 parasites on day 0, and indicated concentrations of drug twice a day on days 0-3. Tail bleeds were carried out on day 4 to ascertain parasitemia, after which the animals were sacrificed.
as §1, with “FIG. 12.” for “FIG. 11.”, “of ICI 118,551” for “of the racemic form of propranolol”, “and ICI 181,551” for “and the racemic form of propranolol”
In vivo mouse experiments were done with P. berghei using a standard 4 day Peters assay (W. Peters, B. L. Robinson, Ann Trop Med Parasitol 78, 561 (1984)). […]

- IC50: 7.5 mg/kg/day
Structure (SMILES): CC(C)NCC(O)COc1cccc2ccccc12 (racemic) [racemic propranolol]

From patent US20040220198A1, “Methods for treating malaria by modulation of G protein function” (priority 2002, published 2004)
